Screening data, single-dose tests

Amino acid sequences for entries named in this document (tags omitted).
UniProt I6X8D2, whole entry: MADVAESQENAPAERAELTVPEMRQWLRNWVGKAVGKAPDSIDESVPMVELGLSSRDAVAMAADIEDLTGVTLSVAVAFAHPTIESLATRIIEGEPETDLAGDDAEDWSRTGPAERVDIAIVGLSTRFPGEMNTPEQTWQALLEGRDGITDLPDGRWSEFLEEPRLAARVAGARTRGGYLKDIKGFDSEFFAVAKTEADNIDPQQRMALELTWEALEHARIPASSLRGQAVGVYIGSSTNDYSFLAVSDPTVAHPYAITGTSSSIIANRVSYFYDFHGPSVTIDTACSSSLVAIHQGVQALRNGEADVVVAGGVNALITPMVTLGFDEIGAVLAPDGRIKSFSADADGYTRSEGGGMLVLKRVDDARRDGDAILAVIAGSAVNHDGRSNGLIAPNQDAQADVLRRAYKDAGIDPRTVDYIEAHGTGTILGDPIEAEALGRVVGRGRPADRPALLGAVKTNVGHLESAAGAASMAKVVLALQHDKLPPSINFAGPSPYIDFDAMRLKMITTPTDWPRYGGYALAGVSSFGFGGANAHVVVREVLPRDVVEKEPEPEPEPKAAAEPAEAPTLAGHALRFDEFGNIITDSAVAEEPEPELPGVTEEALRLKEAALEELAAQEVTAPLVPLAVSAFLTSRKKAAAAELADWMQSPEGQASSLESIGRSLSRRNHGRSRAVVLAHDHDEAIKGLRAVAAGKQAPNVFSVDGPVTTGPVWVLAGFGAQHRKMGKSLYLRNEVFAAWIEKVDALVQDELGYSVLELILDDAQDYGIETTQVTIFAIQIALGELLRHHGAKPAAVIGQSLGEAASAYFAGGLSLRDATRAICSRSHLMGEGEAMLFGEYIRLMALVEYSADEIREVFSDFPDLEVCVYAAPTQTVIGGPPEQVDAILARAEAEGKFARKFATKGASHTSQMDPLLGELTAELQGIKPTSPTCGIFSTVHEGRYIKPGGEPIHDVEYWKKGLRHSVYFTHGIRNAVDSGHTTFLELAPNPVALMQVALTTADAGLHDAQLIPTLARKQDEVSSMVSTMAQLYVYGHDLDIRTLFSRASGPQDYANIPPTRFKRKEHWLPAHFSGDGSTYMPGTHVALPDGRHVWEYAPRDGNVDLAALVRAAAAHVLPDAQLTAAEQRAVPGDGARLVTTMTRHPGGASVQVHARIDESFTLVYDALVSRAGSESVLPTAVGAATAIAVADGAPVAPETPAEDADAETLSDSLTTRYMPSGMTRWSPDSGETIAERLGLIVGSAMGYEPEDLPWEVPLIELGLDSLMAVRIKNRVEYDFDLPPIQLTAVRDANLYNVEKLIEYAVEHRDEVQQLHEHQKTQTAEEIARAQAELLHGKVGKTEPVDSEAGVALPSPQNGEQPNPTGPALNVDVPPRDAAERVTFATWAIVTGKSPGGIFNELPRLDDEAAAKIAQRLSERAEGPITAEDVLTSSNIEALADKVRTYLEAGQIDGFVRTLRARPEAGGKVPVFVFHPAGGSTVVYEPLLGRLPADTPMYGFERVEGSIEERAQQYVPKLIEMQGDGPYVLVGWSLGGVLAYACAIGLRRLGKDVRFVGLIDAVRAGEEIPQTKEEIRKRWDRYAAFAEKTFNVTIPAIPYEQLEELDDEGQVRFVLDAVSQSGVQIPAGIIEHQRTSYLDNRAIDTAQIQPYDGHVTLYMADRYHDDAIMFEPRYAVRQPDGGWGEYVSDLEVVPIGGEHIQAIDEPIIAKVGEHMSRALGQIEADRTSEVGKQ
UniProt P9WPC5, whole entry: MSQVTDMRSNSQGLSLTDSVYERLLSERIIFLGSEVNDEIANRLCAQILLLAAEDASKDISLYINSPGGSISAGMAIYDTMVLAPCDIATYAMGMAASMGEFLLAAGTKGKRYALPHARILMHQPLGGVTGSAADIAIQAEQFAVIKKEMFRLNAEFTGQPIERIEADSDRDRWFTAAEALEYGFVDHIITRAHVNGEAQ
UniProt P9WPC3, whole entry partner: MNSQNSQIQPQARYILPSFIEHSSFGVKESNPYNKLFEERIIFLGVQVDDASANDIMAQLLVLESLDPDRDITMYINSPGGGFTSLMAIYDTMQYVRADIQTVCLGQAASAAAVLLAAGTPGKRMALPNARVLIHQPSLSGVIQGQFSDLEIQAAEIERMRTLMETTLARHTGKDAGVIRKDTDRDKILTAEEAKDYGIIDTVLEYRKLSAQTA

From ChEMBL document CHEMBL3988442, “University of Dundee, Small-Polar-MMV Screening Library” (2021).

Leishmania in macrophages: 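Cell assay of Leishmania donovani living inside macrophages; the read-out is not stated. Concentration: 30 µM. Higher reads as stronger inhibition (inferred: compounds with an IC50 in retests scored well above the rest). About 69,000 compounds were tested under these conditions; 1.5% (about 1,000) showed 50% or more at least once.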
Pks13 thioesterase: 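Enzyme assay of the thioesterase domain of polyketide synthase 13; the read-out is not stated. Target: Polyketide synthase Pks13, Mycobacterium tuberculosis (UniProt I6X8D2). Concentration: 30 µM. The record gives no direction; the compounds picked for IC50 retests had high values, so higher reads as stronger inhibition. Of about 67,000 compounds tested this way, about 300 (0.46%) reached 50% or more in at least one test.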
ClpP1P2: 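ClpP1P2, Mycobacterium tuberculosis (UniProt P9WPC5 and UniProt P9WPC3). Protease assay of ClpP1P2, read by the AMC dye that it sets free. Tested at 50 µM. Direction is inferred from only a few compounds that gave an IC50; most scored high, so higher reads as stronger inhibition. Most other retested compounds had strongly negative values. Of about 69,000 compounds tested this way, about 10 (0.015%) reached 50% or more in at least one test.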
T. brucei: 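Whole-parasite assay of Trypanosoma brucei over 72 hours; the read-out is not stated. Concentration: 30 µM. Direction is inferred from retests: higher values go with stronger inhibition. Values scatter widely below zero; nearly all retest evidence comes from the higher of the two concentrations used. About 64,000 compounds were tested under these conditions; 1.5% (about 940) showed 50% or more at least once.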

Values are the deposited “Percent Effect”, in %. The record does not define 0% and 100%; most values in the screen are far below 50% and negative numbers occur (in some assays of this library far below -100). The compounds are a random part of those screened. Two or more numbers in one place are separate tests of the same structure; such repeats can differ widely. A dash means the value is not listed here; it may have been measured.

SMILES	Leishmania in macrophages	Pks13 thioesterase	ClpP1P2	T. brucei
Cn1cc(C[C@H]2[C@H](N3CCOCC3)CCN2C(=O)c2ccoc2)cn1	1.583	1.375	-6.837	-20.17
Cc1nn(CC(=O)N2CCN(Cc3cn(C)nc3C)CC2)cc1Br	-40.26	29.11	-3.242	-22.12
Cc1ccc2c(c1)CN(C(=O)c1cccnc1)C(CN(C)C)CO2 (stereo not drawn)	-	-3.48	-6.184	-
CC(=O)N1CCCc2sc(C(=O)NC3CC3)nc21	25.12	-1.796	-15.35	-122
O=C(O)C(F)(F)F.O=C(c1cccs1)N1CCOCC2(C1)CN(c1cccnc1)C(=O)CO2 (stereo not drawn)	11	-	-	-10.43
CCN1CCOC(CNc2nccc(OC)n2)C1 (stereo not drawn)	13.73	-17.62	-6.041	-44.68
CN(C)CCN1CCOCC2(CCCN(C(=O)c3cccn3C)C2)C1 (stereo not drawn)	-	6.4	-23.45	-
COc1cccc(-c2n[nH]cc2CNC2CCC(O)CC2)c1 (stereo not drawn)	-	-30.4	14.42	-
CCc1nnc(NC(=O)c2ccc(C3CCCN3CC(C)C)s2)s1 (stereo not drawn)	18.91	-30.56	0.2564	-0.9926
COc1cccn(CC(=O)N2CCCC3(CCOCC3)C2)c1=O	33.93	-4.903	-10.27	-27.47
CNC(=O)N1CCC2(CC1)CN(C)Cc1cc(F)ccc12.Cl	33.74	-	-	-52.57
C[C@@H]1C[C@@H]2CCN(C(=O)c3ccncn3)C[C@H]2O1	-	-3.963	-3.066	-
COc1cc(N2CCc3ncnc(-c4ccncc4)c3CC2)ncn1.O=C(O)C(F)(F)F	29.45	-	-	-17.02
CC(=O)N1CCN(C(=O)CNc2ccc3ncsc3c2)CC1	-6.625	7.004	5.399	-16.22
COCC(=O)N1CCOC(c2ccc(N(C)C)cn2)C1 (stereo not drawn)	5.157 and -1.44	-4.97	-2.386	-2.353
O=C(Cc1ccccc1)N1CCC2(CC1)CC(Nc1cnccn1)CO2 (stereo not drawn)	5.138	31.15	-10.24	-42.05
CC(C)c1cc(NCC(O)c2ccccn2)n2nccc2n1 (stereo not drawn)	0.8485	-13.47	14.37	-38.92
O=C(CCOCC(F)(F)F)NS(=O)(=O)c1cccnc1	-95.56	-11.15	-1.056	-16.93
COc1ccc(CN(Cc2cnc(N)nc2)CC2CCCO2)c(OC)c1.O=C(O)CC(O)(CC(=O)O)C(=O)O (stereo not drawn)	1.657	-	-	5.653
Nc1nc(Nc2ccccc2)cc(N2CCNCC2)n1	-	17.19	-1.086	-
O=C1CCC2(CCN(CCSc3ccccc3)CC2)CN1CCCO	5.393	-18.87	0.8993	0.0518
NC(=O)COc1cccc(C(=O)N2CCCC(n3cccn3)C2)c1 (stereo not drawn)	10.61	-12.04	10.92	-7.132
Cc1nccn1CCN(C)C(=O)C1CCN(C(=O)C2CCCC2)CC1	-12.97	-4.472	1.664	-19.01
COCCN1CCCC2(CCN(c3nc(C)nc4c3CCC4)C2)C1=O (stereo not drawn)	12.46	-24.31	-11.86	-22.96
CC(C(=O)N1CCCC1)S(=O)(=O)Cc1noc(C(C)(C)C)n1 (stereo not drawn)	4.911	-11.34	-7.448	-14.33
O=C(c1ccno1)N1CCO[C@]2(CCC[C@@H]2COCc2ccncc2)C1	21.1	-20.33	-7.497	-7.229
Cc1nnc([C@@H]2C[C@H]3CN(C(=O)C4CC4)C[C@H]3O2)[nH]1	-	8.303	-4.914	-
CCCn1cc(CN2CCCC2c2cccc(-n3ccnc3)n2)cn1 (stereo not drawn)	-9.625 and -15.49	2.106	3.243	-40.2
OC(CN1CCN(CC2CC2)CC1)c1ccc(Br)cc1 (stereo not drawn)	40.09	-31.45	-0.7725	-13.43
O=c1[nH]c(NC2CCCC2)nc2nccc(-c3cccs3)c12	4.254	72.48	-36.44	18.67
Cc1c(Br)cccc1C(=O)NCC1CCNCC1	-	29.91	-8.025	-
CCC(O)CN1CCN(C(=O)Cc2ccc(C)nc2)CC1 (stereo not drawn)	16.36	-17.06	-9.708	9.148
Cc1cc(NC(=O)CN2CCc3cncnc3C2)on1	3.119	-	-23.42	8.362
CC(C)CC(=O)N1C[C@H]2CCCN(S(=O)(=O)c3ccc(Cl)s3)[C@H]2C1	-	16.11	12	-
Cc1noc(C)c1CN1C[C@@H]2COC[C@@H](CC(=O)N3CCCO3)[C@@H]2C1	-	-9.661	-2.404	-

For reference, 3 entries once more:

{"smiles": "Cn1cc(C[C@H]2[C@H](N3CCOCC3)CCN2C(=O)c2ccoc2)cn1", "Leishmania in macrophages": 1.583, "Pks13 thioesterase": 1.375, "ClpP1P2": -6.837, "T. brucei": -20.17}
{"smiles": "CC(=O)N1CCN(C(=O)CNc2ccc3ncsc3c2)CC1", "Leishmania in macrophages": -6.625, "Pks13 thioesterase": 7.004, "ClpP1P2": 5.399, "T. brucei": -16.22}
{"smiles": "O=C1CCC2(CCN(CCSc3ccccc3)CC2)CN1CCCO", "Leishmania in macrophages": 5.393, "Pks13 thioesterase": -18.87, "ClpP1P2": 0.8993, "T. brucei": 0.0518}